{"source": "paper PMC8384837", "conditions_in_all_cases": "yeast three-hybrid, YBZ-1, SC-Leu-His + 0.5 mM 3-AT, 4 days", "key": {"[1]": {"molecular_target": "T1, PUM1 PUF domain R5-RQI C1007R + R1008Q + Q1011I (Homo sapiens) (UniProt Q14671)", "T1 sequence": "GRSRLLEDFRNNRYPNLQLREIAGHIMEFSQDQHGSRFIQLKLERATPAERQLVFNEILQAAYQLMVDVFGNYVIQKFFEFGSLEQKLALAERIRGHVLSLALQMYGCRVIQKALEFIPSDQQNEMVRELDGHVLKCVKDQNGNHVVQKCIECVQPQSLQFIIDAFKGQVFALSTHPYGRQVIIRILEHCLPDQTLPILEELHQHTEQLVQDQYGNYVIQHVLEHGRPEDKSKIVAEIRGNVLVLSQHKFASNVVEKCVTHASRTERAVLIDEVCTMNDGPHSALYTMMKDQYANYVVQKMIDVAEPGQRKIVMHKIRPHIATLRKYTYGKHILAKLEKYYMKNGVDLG"}, "[2]": {"molecular_target": "T2, PUM1 PUF domain R5-RQK C1007R + R1008Q + Q1011K (Homo sapiens) (UniProt Q14671)", "T2 sequence": "T1 sequence with I184K"}, "[3]": {"molecular_target": "T3, PUM1 PUF domain R5-RQL C1007R + R1008Q + Q1011L (Homo sapiens) (UniProt Q14671)", "T3 sequence": "T1 sequence with I184L"}, "[4]": {"molecular_target": "T4, PUM1 PUF domain R5-RQQ C1007R + R1008Q (Homo sapiens) (UniProt Q14671)", "T4 sequence": "T1 sequence with I184Q"}, "[5]": {"molecular_target": "T5, PUM1 PUF domain R5-RQV C1007R + R1008Q + Q1011V (Homo sapiens) (UniProt Q14671)", "T5 sequence": "T1 sequence with I184V"}, "[6]": {"molecular_target": "T6, PUM1 PUF domain R5-RQW C1007R + R1008Q + Q1011W (UniProt Q14671)", "T6 sequence": "T1 sequence with I184W"}, "[7]": {"molecular_target": "T7, PUM1 PUF domain R5-RRF C1007R + Q1011F (Homo sapiens) (UniProt Q14671)", "T7 sequence": "T1 sequence with Q181R, I184F"}, "[8]": {"molecular_target": "T8, PUM1 PUF domain R5-RSC C1007R + R1008S + Q1011C (Homo sapiens) (UniProt Q14671)", "T8 sequence": "T1 sequence with Q181S, I184C"}, "[9]": {"molecular_target": "T9, PUM1 PUF domain R5-RSD C1007R + R1008S + Q1011D (UniProt Q14671)", "T9 sequence": "T1 sequence with Q181S, I184D"}, "[10]": {"molecular_target": "T10, PUM1 PUF domain R5-RSG C1007R + R1008S + Q1011G (Homo sapiens) (UniProt Q14671)", "T10 sequence": "T1 sequence with Q181S, I184G"}, "[11]": {"molecular_target": "T11, PUM1 PUF domain R5-RSI C1007R + R1008S + Q1011I (Homo sapiens) (UniProt Q14671)", "T11 sequence": "T1 sequence with Q181S"}, "[12]": {"molecular_target": "T12, PUM1 PUF domain R5-RSK C1007R + R1008S + Q1011K (Homo sapiens) (UniProt Q14671)", "T12 sequence": "T1 sequence with Q181S, I184K"}, "[13]": {"molecular_target": "T13, PUM1 PUF domain R5-RSP C1007R + R1008S + Q1011P (UniProt Q14671)", "T13 sequence": "T1 sequence with Q181S, I184P"}, "[14]": {"molecular_target": "T14, PUM1 PUF domain R5-RSR C1007R + R1008S + Q1011R (Homo sapiens) (UniProt Q14671)", "T14 sequence": "T1 sequence with Q181S, I184R"}, "[15]": {"molecular_target": "T15, PUM1 PUF domain R5-RSS C1007R + R1008S + Q1011S (Homo sapiens) (UniProt Q14671)", "T15 sequence": "T1 sequence with Q181S, I184S"}, "[16]": {"molecular_target": "T16, PUM1 PUF domain R5-RST C1007R + R1008S + Q1011T (Homo sapiens) (UniProt Q14671)", "T16 sequence": "T1 sequence with Q181S, I184T"}, "[17]": {"molecular_target": "T17, PUM1 PUF domain R5-RTL C1007R + R1008T + Q1011L (UniProt Q14671)", "T17 sequence": "T1 sequence with Q181T, I184L"}, "[18]": {"molecular_target": "T18, PUM1 PUF domain R5-RTR C1007R + R1008T + Q1011R (Homo sapiens) (UniProt Q14671)", "T18 sequence": "T1 sequence with Q181T, I184R"}, "[19]": {"molecular_target": "T19, PUM1 PUF domain R5-RVC C1007R + R1008V + Q1011C (UniProt Q14671)", "T19 sequence": "T1 sequence with Q181V, I184C"}, "[20]": {"molecular_target": "T20, PUM1 PUF domain R5-RVM C1007R + R1008V + Q1011M (UniProt Q14671)", "T20 sequence": "T1 sequence with Q181V, I184M"}}, "note": "Numbering of substitutions follows the chain as printed. The list shows a part of the results. For some assays here: At the low end of the ranking the order means little.", "data": [{"sequence": "GGCUAGAACUAGUGGAUCCCCCGGCGCCCGGCGGCUCGAGCCCGGGUAAGUGUAAAUAGUCUGCAUGCCGCCGGGCGCCAUGCCUGCAGGUCGACUCUAGAAAACAUG", "values": [{"measurement": "binding signal (log2 enrichment (interaction score))", "setting": "[1]", "value": -0.7}, {"measurement": "binding signal (log2 enrichment (interaction score))", "setting": "[2]", "value": 0.37}, {"measurement": "binding signal (log2 enrichment (interaction score))", "setting": "[3]", "value": -1.05}, {"measurement": "binding signal (log2 enrichment (interaction score))", "setting": "[4]", "value": 0.95}, {"measurement": "binding signal (log2 enrichment (interaction score))", "setting": "[5]", "value": -1.45}, {"measurement": "binding signal (log2 enrichment (interaction score))", "setting": "[6]", "value": -4.55}, {"measurement": "binding signal (log2 enrichment (interaction score))", "setting": "[7]", "value": 0.19}, {"measurement": "binding signal (log2 enrichment (interaction score))", "setting": "[8]", "value": 0.48}, {"measurement": "binding signal (log2 enrichment (interaction score))", "setting": "[9]", "value": -3.05}, {"measurement": "binding signal (log2 enrichment (interaction score))", "setting": "[10]", "value": -1.03}, {"measurement": "binding signal (log2 enrichment (interaction score))", "setting": "[11]", "value": -0.51}, {"measurement": "binding signal (log2 enrichment (interaction score))", "setting": "[12]", "value": 0.02}, {"measurement": "binding signal (log2 enrichment (interaction score))", "setting": "[13]", "value": -2.95}, {"measurement": "binding signal (log2 enrichment (interaction score))", "setting": "[14]", "value": -0.25}, {"measurement": "binding signal (log2 enrichment (interaction score))", "setting": "[15]", "value": -1.31}, {"measurement": "binding signal (log2 enrichment (interaction score))", "setting": "[16]", "value": -1.41}, {"measurement": "binding signal (log2 enrichment (interaction score))", "setting": "[17]", "value": -4.46}, {"measurement": "binding signal (log2 enrichment (interaction score))", "setting": "[18]", "value": -1.05}, {"measurement": "binding signal (log2 enrichment (interaction score))", "setting": "[19]", "value": -2.32}, {"measurement": "binding signal (log2 enrichment (interaction score))", "setting": "[20]", "value": -2.55}]}]}
